No constants are given. Whether binding was seen depends on the method and setting. In cells and extracts the contact can be indirect. A yes stands for co-enrichment or nearness to the bait. Other partners may have been found. Tags and fused reporters may be left off the sequences shown.
T1: Flag-ASPA (aspartoacylase), expressed in PC-3 cells (human) (UniProt P45381)
T1 sequence: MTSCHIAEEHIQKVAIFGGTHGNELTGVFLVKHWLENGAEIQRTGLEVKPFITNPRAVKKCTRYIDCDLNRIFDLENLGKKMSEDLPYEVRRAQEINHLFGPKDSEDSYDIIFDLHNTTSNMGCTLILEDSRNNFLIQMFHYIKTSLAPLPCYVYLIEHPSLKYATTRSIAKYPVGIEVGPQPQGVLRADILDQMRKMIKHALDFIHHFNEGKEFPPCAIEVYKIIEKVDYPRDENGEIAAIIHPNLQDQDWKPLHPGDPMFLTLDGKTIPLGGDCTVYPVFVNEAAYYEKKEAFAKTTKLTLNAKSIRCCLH

Amino acid sequences for entries named in this document (tags omitted).
UniProt P68400: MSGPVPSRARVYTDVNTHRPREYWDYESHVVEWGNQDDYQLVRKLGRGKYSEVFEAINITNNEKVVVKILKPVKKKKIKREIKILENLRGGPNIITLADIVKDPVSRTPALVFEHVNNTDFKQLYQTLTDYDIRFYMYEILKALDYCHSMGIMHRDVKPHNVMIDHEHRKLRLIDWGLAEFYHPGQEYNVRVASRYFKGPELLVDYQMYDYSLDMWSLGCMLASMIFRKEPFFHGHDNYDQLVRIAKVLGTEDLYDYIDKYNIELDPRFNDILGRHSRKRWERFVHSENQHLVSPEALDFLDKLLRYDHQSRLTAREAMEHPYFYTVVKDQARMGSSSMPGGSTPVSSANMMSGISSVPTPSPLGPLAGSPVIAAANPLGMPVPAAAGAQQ
UniProt P06241: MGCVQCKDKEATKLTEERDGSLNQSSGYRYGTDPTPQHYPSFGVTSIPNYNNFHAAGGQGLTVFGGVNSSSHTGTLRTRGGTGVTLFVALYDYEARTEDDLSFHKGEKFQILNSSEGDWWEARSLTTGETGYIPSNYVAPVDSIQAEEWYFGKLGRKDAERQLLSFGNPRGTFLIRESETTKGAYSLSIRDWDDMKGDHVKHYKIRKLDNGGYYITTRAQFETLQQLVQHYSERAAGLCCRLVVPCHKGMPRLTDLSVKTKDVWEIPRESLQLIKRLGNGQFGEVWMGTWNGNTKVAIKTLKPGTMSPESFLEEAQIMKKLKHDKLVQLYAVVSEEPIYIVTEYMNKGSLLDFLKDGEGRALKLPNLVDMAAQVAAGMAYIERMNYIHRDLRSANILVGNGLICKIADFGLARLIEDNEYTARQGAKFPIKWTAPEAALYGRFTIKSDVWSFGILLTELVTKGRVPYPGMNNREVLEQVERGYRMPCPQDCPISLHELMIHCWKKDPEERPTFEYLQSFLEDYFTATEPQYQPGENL
UniProt Q96SB4: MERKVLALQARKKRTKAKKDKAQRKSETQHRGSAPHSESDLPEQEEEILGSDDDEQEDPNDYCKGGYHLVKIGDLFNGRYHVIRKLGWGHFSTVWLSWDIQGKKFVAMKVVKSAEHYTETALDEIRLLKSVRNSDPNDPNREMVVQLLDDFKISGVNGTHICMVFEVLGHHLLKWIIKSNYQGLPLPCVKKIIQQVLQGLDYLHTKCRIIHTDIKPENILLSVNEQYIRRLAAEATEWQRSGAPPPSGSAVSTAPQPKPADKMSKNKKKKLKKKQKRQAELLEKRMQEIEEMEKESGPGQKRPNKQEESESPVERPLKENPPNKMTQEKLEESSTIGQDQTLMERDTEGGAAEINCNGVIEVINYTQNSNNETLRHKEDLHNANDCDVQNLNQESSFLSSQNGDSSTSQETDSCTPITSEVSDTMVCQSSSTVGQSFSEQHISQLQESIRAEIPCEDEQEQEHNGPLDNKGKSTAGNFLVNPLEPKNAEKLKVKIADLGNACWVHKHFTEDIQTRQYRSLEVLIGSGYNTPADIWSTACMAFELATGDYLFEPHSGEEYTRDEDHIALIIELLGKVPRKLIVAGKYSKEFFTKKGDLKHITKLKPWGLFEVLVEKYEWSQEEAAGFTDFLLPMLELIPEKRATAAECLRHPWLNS


Biological target: T1, Flag-ASPA (aspartoacylase), expressed in PC-3 cells (human)
Assay: affinity purification with mass spectrometry; Flag or Flag-ASPA transfected into PC-3 cells for 48 h; lysis in IP buffer, Flag-ASPA immunoprecipitated, in-gel trypsin digestion, Q-Exactive

binding	Molecule
binds	CSNK2A1 (casein kinase 2 alpha 1), endogenous in PC-3 cells (from UniProt P68400 1-391) (enzyme)
binds	FYN (tyrosine-protein kinase Fyn), endogenous in PC-3 cells (from UniProt P06241 1-537) (enzyme)
binds	SRPK1 (serine/arginine-rich protein-specific kinase 1), endogenous in PC-3 cells (from UniProt Q96SB4 1-655) (enzyme)
binds	GAK (cyclin G associated kinase), endogenous in PC-3 cells (enzyme, UniProt O14976 1-1311) MSLLQSALDFLAGPGSLGGASGRDQSDFVGQTVELGELRLRVRRVLAEGGFAFVYEAQDVGSGREYALKRLLSNEEEKNRAIIQEVCFMKKLSGHPNIVQFCSAASIGKEESDTGQAEFLLLTELCKGQLVEFLKKMESRGPLSCDTVLKIFYQTCRAVQHMHRQKPPIIHRDLKVENLLLSNQGTIKLCDFGSATTISHYPDYSWSAQRRALVEEEITRNTTPMYRTPEIIDLYSNFPIGEKQDIWALGCILYLLCFRQHPFEDGAKLRIVNGKYSIPPHDTQYTVFHSLIRAMLQVNPEERLSIAEVVHQLQEIAAARNVNPKSPITELLEQNGGYGSATLSRGPPPPVGPAGSGYSGGLALAEYDQPYGGFLDILRGGTERLFTNLKDTSSKVIQSVANYAKGDLDISYITSRIAVMSFPAEGVESALKNNIEDVRLFLDSKHPGHYAVYNLSPRTYRPSRFHNRVSECGWAARRAPHLHTLYNICRNMHAWLRQDHKNVCVVHCMDGRAASAVAVCSFLCFCRLFSTAEAAVYMFSMKRCPPGIWPSHKRYIEYMCDMVAEEPITPHSKPILVRAVVMTPVPLFSKQRSGCRPFCEVYVGDERVASTSQEYDKMRDFKIEDGKAVIPLGVTVQGDVLIVIYHARSTLGGRLQAKMASMKMFQIQFHTGFVPRNATTVKFAKYDLDACDIQEKYPDLFQVNLEVEVEPRDRPSREAPPWENSSMRGLNPKILFSSREEQQDILSKFGKPELPRQPGSTAQYDAGAGSPEAEPTDSDSPPSSSADASRFLHTLDWQEEKEAETGAENASSKESESALMEDRDESEVSDEGGSPISSEGQEPRADPEPPGLAAGLVQQDLVFEVETPAVLPEPVPQEDGVDLLGLHSEVGAGPAVPPQACKAPSSNTDLLSCLLGPPEAASQGPPEDLLSEDPLLLASPAPPLSVQSTPRGGPPAAADPFGPLLPSSGNNSQPCSNPDLFGEFLNSDSVTVPPSFPSAHSAPPPSCSADFLHLGDLPGEPSKMTASSSNPDLLGGWAAWTETAASAVAPTPATEGPLFSPGGQPAPCGSQASWTKSQNPDPFADLGDLSSGLQGSPAGFPPGGFIPKTATTPKGSSSWQTSRPPAQGASWPPQAKPPPKACTQPRPNYASNFSVIGAREERGVRAPSFAQKPKVSENDFEDLLSNQGFSSRSDKKGPKTIAEMRKQDLAKDTDPLKLKLLDWIEGKERNIRALLSTLHTVLWDGESRWTPVGMADLVAPEQVKKHYRRAVLAVHPDKAAGQPYEQHAKMIFMELNDAWSEFENQGSRPLF

— publication PMC10240701
